Some of these results come from one statement about several compounds together.
Test system: zinnia, piemarker, green bristlegrass or barnyard grass
Assay: Determination of herbicidal activity (general screen, weed not specified per compound)
Assay type: in vivo
Settings: application dose 600 g a.i./hm^2, post-emergence spray

In the case of `Cc1nn(C)c(OC(=O)/C=C/c2ccccc2)c1C(=O)c1ccc(C(F)(F)F)cc1S(C)(=O)=O` [Compound 1-1], the “control effects on zinnia, piemarker, green bristlegrass or barnyard grass” value (“control effects on zinnia, piemarker” for short) is reported as “greater than or equal to 90%”.
In the case of `Cc1nn(C)c(OC(=O)/C=C/c2ccc3c(c2)OCO3)c1C(=O)c1ccc(C(F)(F)F)cc1S(C)(=O)=O` [Compound 1-7], the “control effects on zinnia, piemarker” value is reported as “greater than or equal to 90%”.
`COCc1c(S(C)(=O)=O)ccc(C(=O)c2c(C)nn(C)c2OC(=O)/C=C/c2ccc(OC)cc2)c1Cl` [Compound 1-18] was tested, and the “control effects on zinnia, piemarker” value was “greater than or equal to 90%”.
With `COCc1c(S(C)(=O)=O)ccc(C(=O)c2c(C)nn(C)c2OC(=O)/C=C/c2ccc(C(F)(F)F)cc2)c1Cl` [Compound 1-20] the “control effects on zinnia, piemarker” value was “greater than or equal to 90%”.
`Cc1c(S(C)(=O)=O)ccc(C(=O)c2cnn(C)c2OC(=O)/C=C/c2ccc3c(c2)OCO3)c1Cl` [Compound 1-42] was tested, and the “control effects on zinnia, piemarker” value was “greater than or equal to 90%”.
In the case of `COCCOCc1c(S(C)(=O)=O)ccc(C(=O)c2c(C)nn(C)c2OC(=O)/C=C/c2ccccc2)c1Cl` [Compound 1-76], the “control effects on zinnia, piemarker” value is reported as “greater than or equal to 90%”.
With `COCCOCc1c(S(C)(=O)=O)ccc(C(=O)c2c(C)nn(C)c2OC(=O)/C=C/c2ccc(-c3ccccc3)cc2)c1Cl` [Compound 1-81] the “control effects on zinnia, piemarker” value was “greater than or equal to 90%”.
For `COCCOCc1c(S(C)(=O)=O)ccc(C(=O)c2c(C)nn(C)c2OC(=O)/C=C/c2ccc3c(c2)OCO3)c1Cl` [Compound 1-82], the “control effects on zinnia, piemarker” value was “greater than or equal to 90%”.
In the case of `Cc1nn(C)c(OC(=O)/C=C/c2ccc3c(c2)OCO3)c1C(=O)c1ccc(S(C)(=O)=O)cc1Cl` [Compound 1-226], the “control effects on zinnia, piemarker” value is reported as “greater than or equal to 90%”.
With `COCCOc1c(S(C)(=O)=O)ccc(C(=O)c2c(C)nn(C)c2OC(=O)/C=C/c2ccccc2)c1C` [Compound 1-259] the “control effects on zinnia, piemarker” value was “greater than or equal to 90%”.
`COCCOc1c(S(C)(=O)=O)ccc(C(=O)c2c(C)nn(C)c2OC(=O)/C=C/c2ccc3c(c2)OCO3)c1C` [Compound 1-262] was tested, and the “control effects on zinnia, piemarker” value was “greater than or equal to 90%”.
With `COc1c(S(C)(=O)=O)ccc(C(=O)c2c(C)nn(C)c2OC(=O)/C=C/c2ccccc2)c1C` [Compound 1-265] the “control effects on zinnia, piemarker” value was “greater than or equal to 90%”.
`CCOc1c(S(C)(=O)=O)ccc(C(=O)c2c(C)nn(C)c2OC(=O)/C=C/c2ccccc2)c1C` [Compound 1-280] was tested, and the “control effects on zinnia, piemarker” value was “greater than or equal to 90%”.
For `Cc1c(C(=O)c2cnn(C)c2OC(=O)/C=C/c2ccccc2)ccc(S(C)(=O)=O)c1C1=NOCC1` [Compound 1-292], the “control effects on zinnia, piemarker” value was “greater than or equal to 90%”.
`Cc1nn(C)c(OC(=O)/C=C/c2ccccc2)c1C(=O)c1ccc(S(C)(=O)=O)c(OCC(F)(F)F)c1C` [Compound 1-346] was tested, and the “control effects on zinnia, piemarker” value was “greater than or equal to 90%”.
For `Cc1nn(C)c(OC(=O)/C=C/c2ccccc2)c1C(=O)c1ccc(S(C)(=O)=O)c(OCC2CCCO2)c1C` (stereo not shown) [Compound 1-349], the “control effects on zinnia, piemarker” value was “greater than or equal to 90%”.
For `Cc1nn(C)c(OC(=O)/C=C/c2ccccc2)c1C(=O)c1ccc(Cl)cc1[N+](=O)[O-]` [Compound 1-367], the “control effects on zinnia, piemarker” value was “greater than or equal to 90%”.
With `COCCOc1c(S(C)(=O)=O)ccc(C(=O)c2c(C)nn(C)c2OC(=O)/C=C/c2ccc(OC)cc2)c1C` [Compound 1-370] the “control effects on zinnia, piemarker” value was “greater than or equal to 90%”.
With `Cc1nn(C)c(OC(=O)/C=C/c2ccccc2)c1C(=O)c1ccc(Cl)cc1S(C)(=O)=O` [Compound 1-371] the “control effects on zinnia, piemarker” value was “greater than or equal to 90%”.
For `COc1c(S(C)(=O)=O)ccc(C(=O)c2c(C)nn(C)c2OC(=O)C2=CCCCC2)c1C` [Compound 2-1], the “control effects on zinnia, piemarker” value was “greater than or equal to 90%”.
In the case of `CCOc1c(S(C)(=O)=O)ccc(C(=O)c2c(C)nn(C)c2OC(=O)C2=CCCCC2)c1C` [Compound 2-19], the “control effects on zinnia, piemarker” value is reported as “greater than or equal to 90%”.
With `Cc1nn(C)c(OC(=O)C2=CCCCC2)c1C(=O)c1ccc(S(C)(=O)=O)c(OCC(F)(F)F)c1C` [Compound 2-37] the “control effects on zinnia, piemarker” value was “greater than or equal to 90%”.
For `COCCOc1c(S(C)(=O)=O)ccc(C(=O)c2c(C)nn(C)c2OC(=O)C2=CCCCC2)c1C` [Compound 2-55], the “control effects on zinnia, piemarker” value was “greater than or equal to 90%”.
For `COCCOc1c(S(C)(=O)=O)ccc(C(=O)c2cnn(C)c2OC(=O)C2=CCCCC2)c1C` [Compound 2-67], the “control effects on zinnia, piemarker” value was “greater than or equal to 90%”.
`Cc1nn(C)c(OC(=O)C2=CCCCC2)c1C(=O)c1ccc(S(C)(=O)=O)c(OCC2CCCO2)c1C` (stereo not shown) [Compound 2-73] was tested, and the “control effects on zinnia, piemarker” value was “greater than or equal to 90%”.
For `Cc1c(C(=O)c2cnn(C)c2OC(=O)C2=CCCCC2)ccc(S(C)(=O)=O)c1C1=NOCC1` [Compound 2-121], the “control effects on zinnia, piemarker” value was “greater than or equal to 90%”.
In the case of `Cc1c(C(=O)c2cnn(C)c2OC(=O)C2=CCCC2)ccc(S(C)(=O)=O)c1C1=NOCC1` [Compound 2-123], the “control effects on zinnia, piemarker” value is reported as “greater than or equal to 90%”.
With `Cc1nn(C)c(OC(=O)C2=CCCCC2)c1C(=O)c1ccc(S(C)(=O)=O)c(C)c1Cl` [Compound 2-289] the “control effects on zinnia, piemarker” value was “greater than or equal to 90%”.
In the case of `Cc1nn(C)c(OC(=O)C2=CCCC2)c1C(=O)c1ccc(S(C)(=O)=O)c(C)c1Cl` [Compound 2-291], the “control effects on zinnia, piemarker” value is reported as “greater than or equal to 90%”.
With `COCc1c(S(C)(=O)=O)ccc(C(=O)c2c(C)nn(C)c2OC(=O)C2=CCCCC2)c1Cl` [Compound 2-307] the “control effects on zinnia, piemarker” value was “greater than or equal to 90%”.
In the case of `COCc1c(S(C)(=O)=O)ccc(C(=O)c2c(C)nn(C)c2OC(=O)C2=CCCC2)c1Cl` [Compound 2-309], the “control effects on zinnia, piemarker” value is reported as “greater than or equal to 90%”.
For `Cc1nn(C)c(OC(=O)C2=CCCCC2)c1C(=O)c1ccc(C(F)(F)F)cc1S(C)(=O)=O` [Compound 2-379], the “control effects on zinnia, piemarker” value was “greater than or equal to 90%”.
In the case of `Cc1nn(C)c(OC(=O)C2=CCCC2)c1C(=O)c1ccc(C(F)(F)F)cc1S(C)(=O)=O` [Compound 2-380], the “control effects on zinnia, piemarker” value is reported as “greater than or equal to 90%”.
`Cc1nn(C)c(OC(=O)C2=CCCCC2)c1C(=O)c1ccc(S(C)(=O)=O)cc1Cl` [Compound 2-383] was tested, and the “control effects on zinnia, piemarker” value was “greater than or equal to 90%”.
`Cc1nn(C)c(OC(=O)C2=CCCC2)c1C(=O)c1ccc(Cl)cc1Cl` [Compound 2-386] was tested, and the “control effects on zinnia, piemarker” value was “greater than or equal to 90%”.
With `Cc1nn(C)c(OC(=O)C2=CCCCC2)c1C(=O)c1ccc(Cl)cc1[N+](=O)[O-]` [Compound 2-391] the “control effects on zinnia, piemarker” value was “greater than or equal to 90%”.
`COCCOc1c(S(C)(=O)=O)ccc(C(=O)c2c(C(C)C)nn(C)c2OC(=O)C2=CCCCC2)c1C` [Compound 2-416] was tested, and the “control effects on zinnia, piemarker” value was “greater than or equal to 90%”.
In the case of `COCCOc1c(S(C)(=O)=O)ccc(C(=O)c2c(C(F)F)nn(C)c2OC(=O)C2=CCCCC2)c1C` [Compound 2-418], the “control effects on zinnia, piemarker” value is reported as “greater than or equal to 90%”.
In the case of `COCCOc1c(S(C)(=O)=O)ccc(C(=O)c2c(C3CC3)nn(C)c2OC(=O)C2=CCCCC2)c1C` [Compound 2-419], the “control effects on zinnia, piemarker” value is reported as “greater than or equal to 90%”.
With `CCn1nc(C)c(C(=O)c2ccc(S(C)(=O)=O)c(OCCOC)c2C)c1OC(=O)C1=CCCCC1` [Compound 2-420] the “control effects on zinnia, piemarker” value was “greater than or equal to 90%”.

— US20230157290A1, “ALKENE-CONTAINING CARBOXYLATE COMPOUND AND USE THEREOF” (SHENYANG SINOCHEM AGROCHEMICALS R&D CO., LTD, priority 2019, published 2023)
